Results reported in patent US20060148730A1, “Method of treating tuberculosis” (priority 2003, published 2006).
At least one structure is not confirmed: it was looked up by name or label, or the drawing left a doubt.

Tested on: M. tuberculosis H37Rv
Test: MIC vs. M. tuberculosis H37Rv, microplate Alamar Blue assay (MABA)
Type: cell-based
Conditions: Table 3; parallel-synthesis carbazate library products, SPE purified

| Structure (SMILES) | MIC, μM |
| --- | --- |
| CCC1OC(=O)C(C)C(OC2CC(C)(OC)C(O)C(C)O2)C(C)C(OC2OC(C)CC(N(C)C)C2O)C(C)(OC)CC(C)C(=O)C(C)C2N(N=CC3=C(Cl)c4cc(F)ccc4OC3)C(=O)OC12C (centres unmarked) [H9′] | ?3 μM |
| CC[C@H]1OC(=O)[C@H](C)[C@@H](O[C@H]2CC(C)(OC)[C@@H](O)[C@H](C)O2)[C@H](C)[C@@H](O[C@@H]2O[C@H](C)C[C@H](N(C)C)[C@H]2O)[C@](C)(OC)C[C@@H](C)C(=O)[C@H](C)[C@H]2N(/N=C/c3cc(-c4cccs4)on3)C(=O)O[C@]12C (some centres unmarked) [C8′] | ?9 μM |
